Measurements taken from paper PMC3828775.
These are yes or no findings as the source states them, for the method shown. Binding seen in cells or lysates may run through a third protein. Binding can be weak; no strength is given.

Biological target: T1, Dvl1 (endogenous, rat primary neurons) (rat (endogenous in E18 rat primary neurons)) (UniProt Q9WVB9)
T1 sequence: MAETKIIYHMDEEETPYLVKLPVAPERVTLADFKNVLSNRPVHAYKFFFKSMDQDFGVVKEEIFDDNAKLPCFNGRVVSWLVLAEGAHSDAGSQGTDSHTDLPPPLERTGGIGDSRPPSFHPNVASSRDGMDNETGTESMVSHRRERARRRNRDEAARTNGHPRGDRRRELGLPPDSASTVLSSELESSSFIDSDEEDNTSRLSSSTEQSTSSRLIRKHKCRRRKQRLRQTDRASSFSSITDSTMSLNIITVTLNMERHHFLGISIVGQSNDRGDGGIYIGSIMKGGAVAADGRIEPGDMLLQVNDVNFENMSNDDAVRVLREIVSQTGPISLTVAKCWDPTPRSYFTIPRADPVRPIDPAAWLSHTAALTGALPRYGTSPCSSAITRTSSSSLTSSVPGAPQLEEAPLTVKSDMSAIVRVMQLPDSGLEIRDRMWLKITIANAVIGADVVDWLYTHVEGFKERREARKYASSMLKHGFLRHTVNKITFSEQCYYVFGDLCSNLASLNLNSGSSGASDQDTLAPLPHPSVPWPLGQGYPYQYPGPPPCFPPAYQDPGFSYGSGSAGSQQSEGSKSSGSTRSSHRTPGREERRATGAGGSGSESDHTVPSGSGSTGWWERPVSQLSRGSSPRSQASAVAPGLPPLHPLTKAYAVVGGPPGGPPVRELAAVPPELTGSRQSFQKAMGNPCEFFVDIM
Assay: co-IP; endogenous Dvl1 immunoprecipitated with Dvl1 antibody from lysate of cultured E18 rat primary neurons; NP-40 lysis buffer; blot for Dvl1 and Nup358

binding: binds
Substance: Nup358 (endogenous, rat)
